Columns and labels:
[1] = tested on: D. ethenogenes strain 195; assay: Chlorobenzene dechlorination by cultures of D. ethenogenes strain 195; design: species or system Dehalococcoides ethenogenes; settings: for Original clorobenzene Remaining: 2 mM chlorobenzene; for Dechlorination by strain 195: with first dose of PCE
[2] = tested on: D. ethenogenes strain 195; assay: Transfer of dechlorination activity with compound as sole electron acceptor; design: species or system Dehalococcoides ethenogenes
[3] = tested on: Dehalococcoides sp. strain CBDB1; settings: cited from earlier work
[4] = tested on: D. ethenogenes strain 195 pure culture; assay: Dehalogenation of sediment-applied chloroaromatics by D. ethenogenes strain 195 pure culture; design: species or system Dehalococcoides ethenogenes; settings: for Dechlorination products: 28° C., sediment method; for Dechlorination daughter products: after 249 days of incubation
[5] = tested on: mixed culture containing D. ethenogenes strain 195; assay: Dechlorination by butyrate-PCE enriched mixed culture containing D. ethenogenes strain 195; design: species or system Dehalococcoides ethenogenes; settings: for Dechlorination products: 34° C., PCE added on day 0
[6] = after 150 days, starter dose of PCE
[7] = mixed culture, dioxin amended to sediment

For Clc1ccc(Cl)c(Cl)c1Cl [1,2,3,4-TeCB], the “Original clorobenzene Remaining” value [1, 6] was 46 mol %, the “Dechlorination products formed: DCB 1,2” value [1, 6] was 1 mol % and the “Dechlorination products formed: DCB 1,3” value [1, 6] was 20 mol %. The “Dechlorination products formed: TCB 1,2,4” value [1, 6] was 30 mol %, the “Dechlorination products formed: TCB 1,3,5” value [1, 6] was 3 mol % and the “Utilization by strain 195” value [2] was “utilized”.

In the case of Clc1c(Cl)c(Cl)c2c(c1Cl)Oc1ccccc1O2 [1,2,3,4-TeCDD, 1,2,3,4-Tetrachlorodibenzo-p-dioxin], the “Dechlorination products by strain CBDB1” value [3] is given as 2,3-DCDD and 2-MCDD, the Dechlorination products [4] is given as “primarily 1,2,4-TrCDD, with a trace of 1,3-DCDD” and the “Dechlorination efficiency by mode of addition” value ([5]; amended onto glass beads or serum bottle surfaces, versus sediment) is given as “less efficient”. The Dechlorination products [5, 7] was “mixture of 1,2,4-trichlorodibenzo-p-dioxin (1,2,4-TrCDD) and 1,3-DCDD”, the “Time for dechlorination to product mixture” value [5, 7] was no more than 40 days and the “Original substrate remaining when dechlorination ceased” value ([5]; mixed culture, dioxin amended to sediment, despite re-amendment of electron donor) was “about 10%”.

For Clc1c(Cl)c(Cl)c2c(oc3ccccc32)c1Cl [1,2,3,4-TeCDF, 1,2,3,4-Tetrachlorodibenzofuran], the Dechlorination products [4] was “a trichlorinated dibenzo-furan (TrCDF) congener”.

In the case of Clc1c(Cl)c(Cl)c2ccccc2c1Cl [1,2,3,4-TeCN, 1,2,3,4-tetrachloronaphthalene], the Dechlorination daughter products [4] is reported as “primarily to an unidentified dichloronaphthalene congener (DCN)”.

With Clc1cc(Cl)c(Cl)c(Cl)c1 [1,2,3,5-TeCB] the “Original clorobenzene Remaining” value [1, 6] was 93 mol %, the “Dechlorination products formed: TCB 1,2,4” value [1, 6] was 1 mol % and the “Dechlorination products formed: TCB 1,3,5” value [1, 6] was 6 mol %.

For Clc1cccc(Cl)c1Cl [1,2,3-TCB], the “Growth of strain CBDB1 with compound” value [3] is given as “exhibits growth”.

For Clc1cc(Cl)c(Cl)cc1Cl [1,2,4,5-TeCB], the “Original clorobenzene Remaining” value [1, 6] was 25 mol %, the “Dechlorination products formed: DCB 1,3” value [1, 6] was 5 mol % and the “Dechlorination products formed: DCB 1,4” value [1, 6] was 10 mol %. For the same compound, the “Dechlorination products formed: TCB 1,2,4” value [1, 6] was 60 mol % and the “Utilization by strain 195” value [2] was “utilized”.

In the case of Clc1ccc(Cl)c(Cl)c1 [1,2,4-TCB], the “Growth of strain CBDB1 with compound” value [3] is given as “exhibits growth”.

In the case of Clc1c(Cl)c(Cl)c(-c2ccccc2)c(Cl)c1Cl [2,3,4,5,6-PeCB, 2,3,4,5,6-pentachlorobiphenyl], the Dechlorination products [4] is reported as 2,3,4,6-TeCB and/or 2,3,5,6-TeCB (these congeners could not be resolved) and 2,4,6-trichlorobiphenyl (2,4,6-TrCB).

For Clc1cc2c(cc1Cl)Oc1cc(Cl)c(Cl)cc1O2 [2,3,7,8-TeCDD], the Dechlorination daughter products [4] was “not detected”.

With Clc1cc2c(cc1Cl)Oc1ccccc1O2 [2,3-DCDD, 2,3-dichlorodibenzo-p-dioxin] the Dechlorination daughter products [4] was “not detected”.

In the case of Clc1c(Cl)c(Cl)c(Cl)c(Cl)c1Cl [HCB, hexachlorobenzene], the “Conversion by cell extracts of strain CBDB1” value [3] is listed as “capable of converting”, the “Original clorobenzene Remaining” value [1, 6] is listed as 46 mol % and the “Dechlorination products formed: QCB” value [1, 6] is listed as 10 mol %. The “Dechlorination products formed: TCB 1,2,4” value [1, 6] was 1 mol %, the “Dechlorination products formed: TCB 1,3,5” value [1, 6] was 20 mol % and the “Dechlorination products formed: TeCB 1,2,3,5” value [1, 6] was 23 mol %. The “Dechlorination by strain 195” value [1] was “dechlorinated” and the “Utilization by strain 195” value [2] was “utilized”.

For ClC(Cl)=C(Cl)Cl [PCE, tetrachloroethene], the “Dechlorination products by strain CBDB1” value [3] is listed as “only to trans-1,2-DCE”, the Dechlorination products [4] is listed as “mixture of VC and ethene” and the “Time for dechlorination to VC and ethene of re-added PCE” value ([4]; PCE 175 μM added day 164 and day 185) is listed as “within two weeks”. For the same compound, the “Lag period of dechlorination” value ([4]; PCE 350 μM added initially) was “approximately two months”, the “Time for dehalogenation to VC and ethene after purging” value ([4]; after headspace purging on day 21) was “within five weeks” and the “Dechlorination products of PCE dose” value ([1]; all cultures with chlorobenzene test substrate) was “VC and ethene”. For the same compound, the Dechlorination products [5, 7] was “mixture of VC and ethene”.

For Clc1cc(Cl)c(Cl)c(Cl)c1Cl [QCB, pentachlorobenzene], the “Conversion by cell extracts of strain CBDB1” value [3] is listed as “capable of converting”, the “Original clorobenzene Remaining” value [1, 6] is listed as 12 mol % and the “Dechlorination products formed: DCB 1,3” value [1, 6] is listed as 3 mol %. For the same compound, the “Dechlorination products formed: TCB 1,2,4” value [1, 6] was 15 mol %, the “Dechlorination products formed: TCB 1,3,5” value [1, 6] was 60 mol % and the “Dechlorination products formed: TeCB 1,2,3,5” value [1, 6] was 10 mol %. The “Dechlorination by strain 195” value [1] was “dechlorinated” and the “Utilization by strain 195” value [2] was “utilized”.
